Results published in the supplement of paper PMC11732987, “Enantioselective OTUD7B fragment discovery through chemoproteomics screening and high-throughput optimisation” (Communications Chemistry, 2025).
The list shows a part of the results. The data scatter; read single values as rough.

By UniProt entry, the sequences of proteins in these tests, tags left out. Where a name states a change or a piece, a line headed by the entry shows the natural chain unless it says otherwise. Residues count along the entry.
UniProt Q9NR46: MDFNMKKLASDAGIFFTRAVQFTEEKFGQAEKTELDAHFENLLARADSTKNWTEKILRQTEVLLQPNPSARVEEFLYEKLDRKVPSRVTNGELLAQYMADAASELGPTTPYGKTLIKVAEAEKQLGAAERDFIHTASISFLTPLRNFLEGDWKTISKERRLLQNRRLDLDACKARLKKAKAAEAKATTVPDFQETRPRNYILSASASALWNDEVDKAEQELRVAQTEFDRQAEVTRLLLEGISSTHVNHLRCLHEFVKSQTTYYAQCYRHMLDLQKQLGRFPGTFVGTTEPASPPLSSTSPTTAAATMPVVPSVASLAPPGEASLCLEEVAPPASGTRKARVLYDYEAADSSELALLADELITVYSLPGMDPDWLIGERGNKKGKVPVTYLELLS
UniProt Q99963: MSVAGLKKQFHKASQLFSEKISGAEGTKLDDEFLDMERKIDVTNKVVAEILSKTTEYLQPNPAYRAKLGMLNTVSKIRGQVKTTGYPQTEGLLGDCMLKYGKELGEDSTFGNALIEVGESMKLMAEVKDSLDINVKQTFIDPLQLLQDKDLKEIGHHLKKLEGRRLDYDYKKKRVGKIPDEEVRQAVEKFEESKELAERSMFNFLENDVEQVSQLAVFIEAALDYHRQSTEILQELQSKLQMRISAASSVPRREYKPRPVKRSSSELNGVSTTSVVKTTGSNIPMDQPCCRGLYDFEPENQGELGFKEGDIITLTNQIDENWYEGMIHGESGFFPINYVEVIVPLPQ
UniProt Q9Y3A5: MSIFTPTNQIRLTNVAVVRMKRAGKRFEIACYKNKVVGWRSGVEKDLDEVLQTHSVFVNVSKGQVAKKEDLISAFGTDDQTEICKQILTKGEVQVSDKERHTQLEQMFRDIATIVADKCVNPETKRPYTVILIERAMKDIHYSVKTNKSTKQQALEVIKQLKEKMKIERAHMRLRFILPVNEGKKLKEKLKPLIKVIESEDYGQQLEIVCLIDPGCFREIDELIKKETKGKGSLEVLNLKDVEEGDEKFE
UniProt Q12765: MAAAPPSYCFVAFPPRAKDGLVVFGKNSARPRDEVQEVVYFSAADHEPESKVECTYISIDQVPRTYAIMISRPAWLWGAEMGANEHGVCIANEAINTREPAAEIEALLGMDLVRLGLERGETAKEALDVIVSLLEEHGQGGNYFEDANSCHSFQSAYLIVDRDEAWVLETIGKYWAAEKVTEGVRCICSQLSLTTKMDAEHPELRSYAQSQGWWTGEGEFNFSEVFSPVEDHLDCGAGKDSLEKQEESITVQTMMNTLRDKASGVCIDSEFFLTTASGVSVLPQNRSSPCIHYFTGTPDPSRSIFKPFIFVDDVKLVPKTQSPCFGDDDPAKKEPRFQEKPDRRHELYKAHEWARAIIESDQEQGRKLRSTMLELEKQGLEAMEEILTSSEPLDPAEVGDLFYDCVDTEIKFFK
UniProt Q96FS4: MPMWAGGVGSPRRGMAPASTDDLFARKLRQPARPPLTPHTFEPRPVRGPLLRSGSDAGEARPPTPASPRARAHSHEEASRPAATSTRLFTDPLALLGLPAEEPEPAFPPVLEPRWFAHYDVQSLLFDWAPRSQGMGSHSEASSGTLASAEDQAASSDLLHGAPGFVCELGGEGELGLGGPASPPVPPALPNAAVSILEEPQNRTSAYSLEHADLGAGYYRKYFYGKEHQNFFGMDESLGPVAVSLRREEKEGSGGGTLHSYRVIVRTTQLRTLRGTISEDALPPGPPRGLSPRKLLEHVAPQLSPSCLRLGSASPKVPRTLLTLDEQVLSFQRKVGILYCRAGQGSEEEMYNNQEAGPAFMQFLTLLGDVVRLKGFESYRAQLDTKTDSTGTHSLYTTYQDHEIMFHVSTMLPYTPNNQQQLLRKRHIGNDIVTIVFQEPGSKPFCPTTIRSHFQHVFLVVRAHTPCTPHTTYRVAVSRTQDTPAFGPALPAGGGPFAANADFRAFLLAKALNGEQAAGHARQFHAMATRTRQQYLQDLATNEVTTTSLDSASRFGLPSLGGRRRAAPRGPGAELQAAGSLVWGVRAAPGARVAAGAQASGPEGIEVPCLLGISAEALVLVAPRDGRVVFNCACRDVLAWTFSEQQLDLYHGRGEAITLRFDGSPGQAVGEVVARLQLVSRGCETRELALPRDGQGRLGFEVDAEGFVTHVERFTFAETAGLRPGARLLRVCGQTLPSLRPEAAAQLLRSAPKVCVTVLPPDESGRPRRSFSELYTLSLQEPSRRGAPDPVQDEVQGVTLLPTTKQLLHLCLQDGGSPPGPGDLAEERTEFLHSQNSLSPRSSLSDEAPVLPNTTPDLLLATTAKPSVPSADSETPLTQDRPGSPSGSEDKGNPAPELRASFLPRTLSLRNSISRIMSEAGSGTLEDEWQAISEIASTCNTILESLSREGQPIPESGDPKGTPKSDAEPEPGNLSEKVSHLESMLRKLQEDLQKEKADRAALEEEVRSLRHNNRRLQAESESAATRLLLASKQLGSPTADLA
UniProt O94885: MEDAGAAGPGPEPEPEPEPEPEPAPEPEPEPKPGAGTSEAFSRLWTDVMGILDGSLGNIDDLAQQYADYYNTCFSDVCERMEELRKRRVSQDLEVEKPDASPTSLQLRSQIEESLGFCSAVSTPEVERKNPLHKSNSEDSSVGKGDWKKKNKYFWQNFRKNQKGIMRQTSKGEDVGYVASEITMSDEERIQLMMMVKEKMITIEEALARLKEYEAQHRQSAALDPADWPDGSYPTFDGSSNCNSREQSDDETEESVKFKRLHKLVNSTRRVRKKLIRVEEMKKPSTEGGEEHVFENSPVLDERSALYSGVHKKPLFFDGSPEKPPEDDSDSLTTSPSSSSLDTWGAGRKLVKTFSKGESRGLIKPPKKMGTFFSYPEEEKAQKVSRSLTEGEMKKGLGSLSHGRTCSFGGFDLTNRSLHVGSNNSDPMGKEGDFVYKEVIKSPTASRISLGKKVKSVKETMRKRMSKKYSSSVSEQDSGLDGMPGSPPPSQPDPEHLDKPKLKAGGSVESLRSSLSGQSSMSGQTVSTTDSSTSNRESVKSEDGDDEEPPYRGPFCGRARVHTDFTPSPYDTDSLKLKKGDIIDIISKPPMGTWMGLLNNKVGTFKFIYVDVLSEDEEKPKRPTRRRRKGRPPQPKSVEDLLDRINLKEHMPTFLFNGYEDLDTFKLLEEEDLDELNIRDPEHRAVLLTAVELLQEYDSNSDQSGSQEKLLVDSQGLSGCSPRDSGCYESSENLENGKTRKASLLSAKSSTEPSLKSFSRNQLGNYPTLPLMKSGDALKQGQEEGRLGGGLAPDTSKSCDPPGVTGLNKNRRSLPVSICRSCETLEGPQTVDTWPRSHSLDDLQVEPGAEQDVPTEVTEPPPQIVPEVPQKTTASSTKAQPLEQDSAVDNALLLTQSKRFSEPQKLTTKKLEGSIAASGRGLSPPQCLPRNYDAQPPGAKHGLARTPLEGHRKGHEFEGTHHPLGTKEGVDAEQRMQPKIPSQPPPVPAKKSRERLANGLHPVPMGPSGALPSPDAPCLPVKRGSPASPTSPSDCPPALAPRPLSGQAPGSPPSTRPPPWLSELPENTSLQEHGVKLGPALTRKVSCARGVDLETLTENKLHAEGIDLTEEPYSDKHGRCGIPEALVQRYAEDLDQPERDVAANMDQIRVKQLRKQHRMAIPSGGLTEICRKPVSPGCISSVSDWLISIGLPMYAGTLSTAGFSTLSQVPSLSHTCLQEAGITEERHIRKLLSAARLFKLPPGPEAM
UniProt O75446: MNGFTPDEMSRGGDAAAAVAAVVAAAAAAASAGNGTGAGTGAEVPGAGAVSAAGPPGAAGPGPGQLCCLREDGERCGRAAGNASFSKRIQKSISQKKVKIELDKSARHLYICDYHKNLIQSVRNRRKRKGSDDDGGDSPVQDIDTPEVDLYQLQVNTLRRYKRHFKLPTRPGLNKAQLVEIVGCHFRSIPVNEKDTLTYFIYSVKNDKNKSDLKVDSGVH
UniProt Q96IW7, 12-34: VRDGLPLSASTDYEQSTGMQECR
UniProt O43166: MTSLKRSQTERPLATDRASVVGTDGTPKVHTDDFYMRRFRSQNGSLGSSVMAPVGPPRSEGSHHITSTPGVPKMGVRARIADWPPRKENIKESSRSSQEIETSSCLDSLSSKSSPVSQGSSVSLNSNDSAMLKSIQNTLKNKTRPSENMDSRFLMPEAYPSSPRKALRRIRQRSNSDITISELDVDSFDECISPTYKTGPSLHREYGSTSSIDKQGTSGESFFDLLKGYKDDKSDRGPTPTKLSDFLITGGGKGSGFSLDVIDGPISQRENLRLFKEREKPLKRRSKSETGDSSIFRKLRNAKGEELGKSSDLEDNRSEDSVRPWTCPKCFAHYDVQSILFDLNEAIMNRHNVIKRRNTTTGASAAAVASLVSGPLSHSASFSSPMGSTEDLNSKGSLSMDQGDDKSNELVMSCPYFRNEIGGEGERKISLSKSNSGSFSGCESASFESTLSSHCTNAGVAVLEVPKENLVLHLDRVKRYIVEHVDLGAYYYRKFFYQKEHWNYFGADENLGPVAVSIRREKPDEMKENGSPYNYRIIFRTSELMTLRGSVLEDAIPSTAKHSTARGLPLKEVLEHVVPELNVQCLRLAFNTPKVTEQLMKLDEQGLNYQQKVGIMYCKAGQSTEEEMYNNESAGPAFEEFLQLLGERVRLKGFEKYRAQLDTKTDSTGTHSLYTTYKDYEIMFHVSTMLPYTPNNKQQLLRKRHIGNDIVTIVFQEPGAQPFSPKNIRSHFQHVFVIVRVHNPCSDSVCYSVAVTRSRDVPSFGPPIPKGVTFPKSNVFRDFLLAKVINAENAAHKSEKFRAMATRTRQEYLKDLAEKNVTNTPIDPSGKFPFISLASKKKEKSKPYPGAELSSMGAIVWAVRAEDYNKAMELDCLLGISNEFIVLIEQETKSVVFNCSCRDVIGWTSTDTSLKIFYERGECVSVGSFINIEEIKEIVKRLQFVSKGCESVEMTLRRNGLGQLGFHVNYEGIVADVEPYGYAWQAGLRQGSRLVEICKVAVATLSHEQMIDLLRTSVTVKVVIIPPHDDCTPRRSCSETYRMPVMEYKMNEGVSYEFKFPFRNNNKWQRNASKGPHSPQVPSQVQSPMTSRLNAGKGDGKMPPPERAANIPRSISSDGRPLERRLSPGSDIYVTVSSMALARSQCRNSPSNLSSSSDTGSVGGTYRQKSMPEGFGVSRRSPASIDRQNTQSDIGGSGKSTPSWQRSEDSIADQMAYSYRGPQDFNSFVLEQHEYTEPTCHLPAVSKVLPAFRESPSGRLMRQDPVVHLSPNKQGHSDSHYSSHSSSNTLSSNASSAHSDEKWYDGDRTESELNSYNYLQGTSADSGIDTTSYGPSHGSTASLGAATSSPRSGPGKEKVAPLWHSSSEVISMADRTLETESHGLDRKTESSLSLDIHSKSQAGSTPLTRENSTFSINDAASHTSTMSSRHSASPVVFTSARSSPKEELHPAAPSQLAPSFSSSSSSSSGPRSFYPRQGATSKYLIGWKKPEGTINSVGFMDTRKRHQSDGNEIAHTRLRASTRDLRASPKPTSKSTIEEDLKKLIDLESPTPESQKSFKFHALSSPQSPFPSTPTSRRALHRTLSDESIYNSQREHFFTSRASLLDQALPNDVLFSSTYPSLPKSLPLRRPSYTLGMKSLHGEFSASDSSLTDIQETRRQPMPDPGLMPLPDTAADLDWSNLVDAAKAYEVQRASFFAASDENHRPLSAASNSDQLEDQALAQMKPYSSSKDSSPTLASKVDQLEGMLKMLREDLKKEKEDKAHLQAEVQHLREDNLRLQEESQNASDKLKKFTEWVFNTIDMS
UniProt P31040: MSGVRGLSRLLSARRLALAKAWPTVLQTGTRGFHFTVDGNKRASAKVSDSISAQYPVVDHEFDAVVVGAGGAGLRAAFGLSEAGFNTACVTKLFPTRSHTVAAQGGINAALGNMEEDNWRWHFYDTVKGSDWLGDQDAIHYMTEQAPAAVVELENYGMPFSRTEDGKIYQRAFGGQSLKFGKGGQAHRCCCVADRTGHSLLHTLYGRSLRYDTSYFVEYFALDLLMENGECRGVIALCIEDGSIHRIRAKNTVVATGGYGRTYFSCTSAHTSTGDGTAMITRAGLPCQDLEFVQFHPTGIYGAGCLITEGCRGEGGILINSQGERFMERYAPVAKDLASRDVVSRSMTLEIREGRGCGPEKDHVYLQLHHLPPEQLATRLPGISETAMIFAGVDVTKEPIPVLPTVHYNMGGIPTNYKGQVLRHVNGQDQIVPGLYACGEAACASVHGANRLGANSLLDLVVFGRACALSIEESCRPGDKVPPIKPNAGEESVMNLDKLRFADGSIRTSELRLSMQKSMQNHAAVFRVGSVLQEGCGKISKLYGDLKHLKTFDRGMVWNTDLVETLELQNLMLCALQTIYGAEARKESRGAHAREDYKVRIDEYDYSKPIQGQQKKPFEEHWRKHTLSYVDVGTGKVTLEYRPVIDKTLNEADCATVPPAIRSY

How the values were obtained:
[1] = compound: ClCC(=O)N[C@@H]1CCCc2ccccc12; assay: log2 mean competition ratio of IA-DTB cysteine labelling (DMSO/compound) (log2 ratio); higher = stronger cysteine engagement by compound; details: treatment time: 4 h, cell line lysate: HEK293T
Protocol: (§1)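 IA-DTB competitive cysteine chemoproteomics in HEK293T RIPA lysate. Lysates were treated with compound 29 or 30 at 50 or 200 µM for 4 h, then IA-DTB (500 µM, 1 h), trypsin-digested, NeutrAvidin-enriched and analysed by diaPASEF. Competition ratio = intensity DMSO / intensity compound (n=4 treated, n=64 DMSO); binding: mean log2 CR ≥ 1 and p ≤ 0.05 plus QC filters. Target is the cysteine site.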

[2] = compound: ClCC(=O)N[C@H]1CCCc2ccccc12; assay: as above; details: treatment time: 4 h, cell line lysate: HEK293T
Protocol: as §1

| Target | log2 mean competition ratio ([1]; 50 µM) | log2 mean competition ratio ([1]; 200 µM) | log2 mean competition ratio ([2]; 50 µM) | log2 mean competition ratio ([2]; 200 µM) |
| --- | --- | --- | --- | --- |
| SH3GLB2 C267 (UniProt Q9NR46) | 0.268 | -0.0721 | 0.209 | -0.313 |
| SH3GL3 C96 (UniProt Q99963) | 0.145 | 0.193 | -0.147 | 0.231 |
| SAMD11 C161 | -0.07 | 0.259 | -0.254 | 0.146 |
| SBDS C31 (UniProt Q9Y3A5) | -0.0136 | -0.188 | 0.0912 | -0.149 |
| SBF1 C896 (UniProt O95248) | -0.135 | -0.0702 | -0.416 | -0.0468 |
| SCRN1 C324 (UniProt Q12765) | -0.0725 | 0.0186 | -0.236 | -0.0417 |
| SIPA1 C755 (UniProt Q96FS4) | 0.356 | 0.316 | -0.67 | 0.0357 |
| SASH1 C1120 (UniProt O94885) | 0.159 | 0.0446 | 0.4 | 0.183 |
| SAP30 C184 (UniProt O75446) | -0.000212 | 0.11 | -0.162 | 0.0414 |
| SEMA6A C787 | -0.0907 | -0.0709 | 0.324 | 0.0327 |
| SBDS C119 (UniProt Q9Y3A5) | 0.000362 | -0.322 | -0.0578 | -0.348 |
| SGSM3 C448 (UniProt Q96HU1) | -0.215 | 0.494 | -0.213 | 0.0203 |
| SHKBP1 C550 (UniProt Q8TBC3) | 0.638 | – | -0.0535 | 0.396 |
| SEC22A C33 (UniProt Q96IW7) | 0.201 | 0.692 | 0.592 | 0.165 |
| SIPA1L1 C105 (UniProt O43166) | -0.4 | -0.00992 | 0.192 | -0.0594 |
| SAMHD1 C80 (UniProt Q9Y3Z3) | -0.186 | -0.0427 | -0.345 | 0.0524 |
| SDHA C89 (UniProt P31040) | 0.323 | 0.737 | 0.00787 | 0.272 |
| SASH1 C799 (UniProt O94885) | – | 0.286 | – | 0.487 |

As a short view, part of the list above.

| Target | log2 mean competition ratio ([1]; 50 µM) | log2 mean competition ratio ([1]; 200 µM) | log2 mean competition ratio ([2]; 50 µM) | log2 mean competition ratio ([2]; 200 µM) |
| --- | --- | --- | --- | --- |
| SIPA1 C755 (UniProt Q96FS4) | 0.356 | 0.316 | -0.67 | 0.0357 |
| SASH1 C1120 (UniProt O94885) | 0.159 | 0.0446 | 0.4 | 0.183 |
